Assay results taken from PubChem BioAssay AID2551 (National Center for Advancing Translational Sciences (NCATS), 2010).
The campaign covered roughly 310,000 compounds. About 17,000 (5.5%) were called active. Inconclusive results, whose numbers are uncertain, are shown with a selection of clear calls. Calls come from the whole dose curve; as a rule, active = well fitted inhibition curve with a large enough effect; inconclusive = small, poorly fitted or top-dose-only effect, or effect the other way; inactive = no such curve, though single readings can be large or run the other way. Potencies beside an inconclusive call are fits to weak or partial responses and may not hold up.

The chains behind the UniProt entries cited, without tags or fusion partners. Where a name states a change or a piece, a line headed by the entry shows the natural chain unless it says otherwise.
UniProt P51450: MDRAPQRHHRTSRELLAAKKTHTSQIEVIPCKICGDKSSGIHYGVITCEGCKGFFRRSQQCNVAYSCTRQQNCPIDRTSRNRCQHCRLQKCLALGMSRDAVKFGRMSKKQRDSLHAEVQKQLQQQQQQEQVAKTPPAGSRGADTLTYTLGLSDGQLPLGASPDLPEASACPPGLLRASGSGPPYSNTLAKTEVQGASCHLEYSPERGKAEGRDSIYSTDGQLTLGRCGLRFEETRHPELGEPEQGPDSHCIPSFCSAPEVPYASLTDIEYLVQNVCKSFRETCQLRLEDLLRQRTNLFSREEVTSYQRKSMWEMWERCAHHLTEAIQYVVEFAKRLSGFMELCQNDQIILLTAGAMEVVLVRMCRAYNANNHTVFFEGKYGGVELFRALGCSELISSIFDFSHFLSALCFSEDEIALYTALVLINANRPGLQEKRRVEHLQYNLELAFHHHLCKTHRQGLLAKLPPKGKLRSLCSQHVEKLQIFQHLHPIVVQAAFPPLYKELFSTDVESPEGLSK

biological target: Nuclear receptor ROR-gamma (Mus musculus) (UniProt P51450); test: qHTS for inhibitors of ROR gamma transcriptional activity; details: Drosophila S2 Gal4-RORgamma UAS-luciferase reporter, 20 h; activity change, negative = inhibition: at 53.6 µM (top of the series); note: nearly all actives have a fitted effect of over 60% in size
Source text: NIH Molecular Libraries Probe Production Network [MLPCN] NIH Chemical Genomics Center [NCGC] MLPCN Grant: R03 DA026211-01 Assay Provider: Dan Littman, New York University Assay Overview: The retinoic acid-related orphan receptor (ROR) gamma is a transcription factor that has a central role in the differentiation of Th17 cells, a subset of T helper cells that secrete the inflammatory cytokines IL-17, IL-17F, and IL-22. Th17 cells have been implicated in graft versus host disease, autoimmune disease and asthma. ROR gamma is induced in naive T helper cells in the presence of TGF-beta combined with IL-6, IL-21, or IL-23, and thereafter directs the expression of the Th17 lineage cytokines. To study the mechanism of action of ROR gamma, an insect cell-based assay was screened. This Drosophila Schneider cell line was stably transfected with two vectors: a gene expressing a fusion of the Gal4 DNA binding domain and ROR gamma transactivation domain under the control of the metallothionine promoter and a Photinus luciferase reporter regulated by the Gal4 binding site enhancer, UAS. […] Small molecule inhibitors of ROR gamma activity are detected by a decrease in luciferase reporter activity.
Assay Protocol Summary: For screening, 600 cells in 4 uL/well were dispensed into white solid 1536-well plates (Grenier) using a solenoid-based dispenser. Following transfer of 23 nL compound or DMSO vehicle by a pin tool, the plates were incubated 1 hr at ambient temperature, and 1 uL/well copper sulfate (700 uM final concentration) was added. The plates were centrifuged 15 s at 1000 RPM and incubated 20 hr at ambient temperature. After addition of 1.5 uL Photinus luciferase detection reagent, the plates were incubated 10 min at ambient temperature and then read by an ViewLux (Perkin Elmer) to detect luminescence. Keywords: NIH Roadmap, MLPCN, MLI, MLSMR, qHTS, NCGC, qHTS, nuclear hormone receptor, retinoic acid-related orphan receptor, ROR gamma
% is set by controls: 0 for no effect and ±100 for the full control effect; potency is the fitted concentration of half-maximal effect.

SMILES | Potency | activity change, negative = inhibition
C=CCc1c(C)nc(C)nc1N/N=C/c1ccc([N+](=O)[O-])cc1 | active: 11.2 µM | 
Cc1ccc(S(=O)(=O)N2CCC(=O)N(C(COCc3ccc(C(F)(F)F)cc3)C(C)C)CC2)cc1 (stereo not drawn) | inconclusive: 15.8 µM [activator, partial curve] | 
CC1CN(c2ncnc3c2c(-c2ccccc2)cn3-c2ccc(F)cc2)CC(C)O1 (stereo not drawn) |  | inactive: 12.3%
COc1ccc(C2=NN(C(=O)CSc3nnc(-c4ccccc4F)o3)C(c3ccco3)C2)cc1 (stereo not drawn) |  | inactive: 24.8%
Fc1ccc(COc2ccc(Cl)cc2/C=N/Nc2nc(N3CCCC3)nc(N3CCCC3)n2)cc1 | inconclusive: 2.24 µM [inhibitor, full curve, poor fit] | 
O=C(Nc1nccs1)c1ccc(COc2ccccc2Br)o1 | inconclusive: 31.6 µM [inhibitor, single point] | 
CCOc1ccccc1C1C(C(=O)Nc2ccc(OC)cc2)=C(C)Nc2nc(CCCO)nn21 (stereo not drawn) | inconclusive: 5.01 µM [activator, single point] | 
O=C(N/N=C/c1cccc(O)c1)c1ccc(NC(=O)c2cccc([N+](=O)[O-])c2)cc1 | inconclusive: 35.5 µM [activator, single point] | 
COc1cccc(C2CC(=O)Nc3cc4c(cc32)CCC4)c1 (stereo not drawn) | inconclusive: 35.5 µM [inhibitor, single point] | 
O=C(CSc1n[nH]c(-c2ccccc2)n1)c1ccc(O)c(O)c1 |  | inactive: -23.8%
COCCn1cnnc1SCC(=O)Nc1cccc(S(=O)(=O)N(C)c2ccccc2)c1 |  | inactive: 38.1%
CCc1ccccc1NC(=S)N1CCC(C(=O)c2ccc(F)cc2)CC1 | inconclusive: 11.2 µM [inhibitor, single point] | 
CCOC(=O)CC1(C)SC(NC(C)=O)=NN1C(C)=O (stereo not drawn) | inconclusive: 35.5 µM [inhibitor, single point] | 
Cc1ccc(Nc2ccc([N+](=O)[O-])cn2)cc1Cl | inconclusive: 12.6 µM [activator, partial curve] | 
O=C(CSc1ccc(-c2ccccc2)nn1)N1CCCCC1 |  | inactive: 1.45%
CCCCN(CCCC)CCNC(=O)c1cn(CC)c2ccc(S(=O)(=O)N3CCCC3)cc2c1=O |  | inactive: -0.72%
Cc1nc2ccc(C(=O)N3CCN(c4ccccc4)CC3)cc2s1 | inconclusive: 5.62 µM [inhibitor, partial curve, poor fit] | 
COC(=O)CN1C(=S)N(c2ccccc2)C(=O)C1CC(=O)Nc1ccc(Cl)cc1 (stereo not drawn) | inconclusive: 35.5 µM [activator, single point] | 
C=CCN=C1NN=C(c2ccc3c(c2)OCCO3)CS1 | active: 4.47 µM | 
c1ccc(Cc2ccc(OCCn3ccnc3)cc2)cc1 | inconclusive: 35.5 µM [inhibitor, single point] | 
Cc1ccccc1C(=O)NC(=S)N(CCO)Cc1ccccc1 | active: 2 µM | 
O=C(Nc1sc2c(c1C(=O)O)CCC2)c1ccccc1 | inconclusive: 35.5 µM [activator, single point] | 
O=C(C1CCN(C2CC(=O)N(c3ccc(Cl)cc3)C2=O)CC1)N1CCOCC1 (stereo not drawn) | inconclusive: 15.8 µM [inhibitor, single point] | 
COc1cc2c3c(c1)/C(=C1/SC(NC(C)=O)=NC1=O)C(=O)N3C(C)(C)C=C2C |  | inactive: 3.69%
COc1ccc(-n2ncc3c(N4CCCc5ccccc54)ncnc32)cc1 | inconclusive: 0.0045 µM [activator, full curve, poor fit] | 

SMILES | Potency | activity change, negative = inhibition
CCOC(=O)c1cc(-c2ccc(OC)cc2)nn1-c1ccc(C(=O)O)cc1 |  | inactive: -11.4%
O=C(NCCc1ccccc1)C1CC(c2ccccc2O)=NO1 (stereo not drawn) | inconclusive: 25.1 µM [inhibitor, single point] | 
O=C1/C(=N/n2cnnc2)c2ccccc2N1Cc1ccccc1 |  | inactive: -14.8%
CCN(CCCNC(=O)C1CCN(S(=O)(=O)CC)CC1)c1cccc(C)c1 |  | inactive: 17.5%
COCCNC(=O)CN1CCC(NC(=O)c2ccco2)CC1 | active: 12.6 µM | 
CCc1cc2c(=O)nc3n(c2s1)Cc1ccccc1/C3=C(/O)c1ccc(F)cc1 | inconclusive: 3.98 µM [inhibitor, partial curve, poor fit] | 
COc1ccccc1C(=O)NC(=S)N1CCc2ccccc21 | inconclusive: 5.01 µM [inhibitor, partial curve, poor fit] | 
Cc1c(N=C2SCC(=O)N2/N=C/c2ccccc2Cl)c(=O)n(-c2ccccc2)n1C | inconclusive: 28.2 µM [inhibitor, single point] | 
CC(=O)OCC(=O)[C@@]1(O)CCC2C3CC(C)C4=CC(=O)C=CC4(C)C3C(O)CC21C (stereo partly drawn) |  | inactive: -19.5%
O=c1[nH]c2cc3c(cc2cc1CN(CCc1ccccc1)Cc1nnnn1CC1CCCO1)OCO3 (stereo not drawn) |  | inactive: -19.9%
Cc1cccc2c1-c1sc(C(=O)Nc3cccnc3)cc1CO2 |  | inactive: -13.8%
COc1ccc(CC(=O)Nc2cccc(-c3nnc(-c4ccco4)o3)c2)cc1 |  | inactive: 12.8%
C/C(=N/NC(=O)C1CC1(c1ccccc1)c1ccccc1)c1ccco1 (stereo not drawn) | inconclusive: 35.5 µM [activator, single point] | 
Cc1ccc(-n2ncc3c(NNC(=O)c4ccco4)ncnc32)c(C)c1 | active: 11.2 µM | 
N#C/C(=C/c1cccs1)c1nc2ccccc2[nH]1 | inconclusive: 15.8 µM [activator, partial curve] | 
CCOc1ccc2[nH]c3c(NCCN(C)C)ncnc3c2c1 |  | inactive: 5%
COc1ccccc1-n1c(=O)oc2ccc(Cl)cc2c1=O | inconclusive: 35.5 µM [inhibitor, single point] | 
Clc1ccc(-c2cn3c(n2)-c2ccccc2C3)cc1Cl | inconclusive: 17.8 µM [inhibitor, single point] | 
S=c1[nH]nc(-c2ccc3ccccc3n2)n1-c1ccc2c(c1)OCCO2 |  | inactive: -4.35%
CC(C)N(C(C)C)S(=O)(=O)c1ccc(N2CCc3ccccc3C2)nc1 | inconclusive: 17.8 µM [activator, single point] | 
Nc1c(C(=O)NC2CCCCC2)c2nc3ccccc3nc2n1/N=C/c1ccco1 | active: 12.6 µM | 
O=C(c1ccc2c(c1)[nH]c(=S)n1c3ccccc3nc21)N1CCN(c2ncccn2)CC1 |  | inactive: 3.68%
COc1ccc(CN2CSC(=S)N(Cc3ccccc3)C2)cc1 | inconclusive: 35.5 µM [inhibitor, single point] | 
Cc1ccc(-c2nn(-c3ccccc3)cc2/C=N/NC(=O)CSc2nnc(C)n2-c2ccccc2)cc1 | inconclusive: 25.1 µM [inhibitor, single point] | 
CCOc1nc(Nc2ccc(Cl)cc2)nc(OCC)n1 | inconclusive: 22.4 µM [activator, single point] | 

SMILES | Potency | activity change, negative = inhibition
Cc1onc(-c2c(Cl)cccc2Cl)c1C(=O)c1c[nH]c(C(=O)NC2CC2)c1 | inconclusive: 35.5 µM [activator, single point] | 
CC(C)CNC(=S)NNC(=O)c1ccccc1OC(F)F | inconclusive: 2 µM [inhibitor, full curve] | 
COc1ccc(Cl)cc1NC(=O)CN(C)Cc1cccs1 |  | inactive: 99.1%
CC(=O)N1CCC(C(=O)NC2CCCc3c2cnn3-c2cc(F)cc(F)c2)CC1 (stereo not drawn) |  | inactive: -4.26%
CN(C)N(Cc1ccccc1)C(=O)C(O)(c1ccccc1)c1ccccc1 |  | inactive: -1.02%
CCCCN(C)S(=O)(=O)c1ccc(C(=O)Nc2nnc(-c3ccco3)o2)cc1 | active: 0.398 µM | 
COc1ccc(-c2cc(C3CCN(C(=O)OC(C)(C)C)CC3)[nH]n2)cc1 |  | inactive: 43.9%
Cc1nn(C)c(C)c1C(C)NC(=O)c1cc(COc2ccc(F)c(F)c2)on1 (stereo not drawn) | inconclusive: 14.1 µM [activator, partial curve] | 
CCc1ccc(C)c(OC(=O)c2cncc(Br)c2)c1 |  | inactive: -1.35% [at 1.91 µM]
CC1(C)Cc2ccccc2C(/C(C#N)=N/O)=N1 | inconclusive: 11.2 µM [inhibitor, single point] | 
CCCC(=O)NC(=S)Nc1ccc(NC(=O)C(C)C)c(OC)c1 | inconclusive: 35.5 µM [inhibitor, single point] | 
COc1ccc(C(C(=O)NC(C)(C)C)N(C(=O)CCC(=O)Nc2cc(C)on2)c2cccc(F)c2)cc1 (stereo not drawn) | inconclusive: 17.8 µM [activator, single point] | 
COc1ccc2[nH]c(=O)c(CN(Cc3cccnc3)C(=O)Nc3ccccc3)cc2c1 | inconclusive: 15.8 µM [activator, partial curve] | 
CCn1c(=O)n(CCOC)c(=O)c2c3c(sc21)CCCC3 |  | inactive: 26%
Cc1ccc(-c2cn(-c3ccccc3)c(=S)[nH]2)cc1C | inconclusive: 0.562 µM [inhibitor, full curve] | 
COc1ccc(CCn2c(-c3ccc(C(C)(C)C)cc3)n[nH]c2=S)cc1OC | active: 3.16 µM | 
CCOc1ccc(-c2onc(C(F)(F)F)c2-c2cscn2)c(O)c1 | inconclusive: 35.5 µM [inhibitor, single point] | 
CC1CCCN(c2ncnc3c2cnn3-c2ccccc2)C1 (stereo not drawn) | inconclusive: 5.62 µM [inhibitor, single point] | 
CCOc1ccc(-c2ccc(SCC(=O)Nc3nnc(CC)s3)nn2)cc1 | inconclusive: 10 µM [inhibitor, partial curve, poor fit] | 
CS(=O)(=O)ON=C1CCN(S(=O)(=O)c2ccccc2)CC1 |  | inactive: -5.23%
O=C(c1ccc(Cn2c(=S)[nH]c3ccccc3c2=O)cc1)N1CCN(c2ccccn2)CC1 | active: 11.2 µM | 
CCOc1ccc(NC(=O)CN(C)S(=O)(=O)c2cccs2)cc1 | inconclusive: 7.08 µM [activator, partial curve] | 
Cc1cc(Nc2ccccc2)nc2cc(O)ccc12 | inconclusive: 12.6 µM [activator, single point] | 

Entries listed so far that contain a CF3 group:
SMILES | Potency | activity change, negative = inhibition
Cc1ccc(S(=O)(=O)N2CCC(=O)N(C(COCc3ccc(C(F)(F)F)cc3)C(C)C)CC2)cc1 (stereo not drawn) | inconclusive: 15.8 µM [activator, partial curve] | 
CCOc1ccc(-c2onc(C(F)(F)F)c2-c2cscn2)c(O)c1 | inconclusive: 35.5 µM [inhibitor, single point] | 
